Experimental data from patent publication EP1142587A1 (priority 1998, dated 2000).

Amino acid sequences for entries named in this document (tags omitted).
UniProt P61169, whole entry: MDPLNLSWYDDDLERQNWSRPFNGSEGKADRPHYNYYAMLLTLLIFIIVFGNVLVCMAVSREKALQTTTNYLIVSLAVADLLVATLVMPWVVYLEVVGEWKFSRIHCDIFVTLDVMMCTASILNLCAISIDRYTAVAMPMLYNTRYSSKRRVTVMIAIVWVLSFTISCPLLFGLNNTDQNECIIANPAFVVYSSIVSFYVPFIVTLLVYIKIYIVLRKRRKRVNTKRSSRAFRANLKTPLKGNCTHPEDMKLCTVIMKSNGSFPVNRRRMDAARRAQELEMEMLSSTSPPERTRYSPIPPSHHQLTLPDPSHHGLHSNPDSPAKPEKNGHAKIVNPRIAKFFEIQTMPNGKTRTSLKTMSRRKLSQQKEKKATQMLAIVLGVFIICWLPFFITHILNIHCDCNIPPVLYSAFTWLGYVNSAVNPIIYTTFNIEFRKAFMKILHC

Biological target: T1, dopamine D2 receptor (Rattus norvegicus, UniProt P61169)
T1 construct: A membrane fraction obtained from rat corpus striatum was prepared as a membrane fraction of a dopamine D2 receptor; from tissue; host or cells: rat corpus striatum membrane fraction
Experiment: biochemical
Format: binding

`CN1CC[C@]23c4c5ccc(O)c4O[C@H]2[C@@H](O)C=C[C@H]3[C@H]1C5` [Morphine, reference compound] was tested, and the Ki was greater than 1000 nM.
